Results: PMC5701058, “Structure of Rap1b bound to talin reveals a pathway for triggering integrin activation” (Nature Communications, 2017)
Results are given in words; binding and its absence hold for the method and conditions named. Some entries that bind do so weakly or less than the wild type.

Chains of the proteins cited; added tags and fusions are not shown. Lines headed by an entry give the natural chain unless they say otherwise; changes in a name come on top. Residues count along the entry.
UniProt Q96AC1, residues 1-105: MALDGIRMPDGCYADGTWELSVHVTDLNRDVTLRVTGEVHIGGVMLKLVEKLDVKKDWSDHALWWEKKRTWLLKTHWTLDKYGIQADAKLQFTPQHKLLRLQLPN
UniProt P61224: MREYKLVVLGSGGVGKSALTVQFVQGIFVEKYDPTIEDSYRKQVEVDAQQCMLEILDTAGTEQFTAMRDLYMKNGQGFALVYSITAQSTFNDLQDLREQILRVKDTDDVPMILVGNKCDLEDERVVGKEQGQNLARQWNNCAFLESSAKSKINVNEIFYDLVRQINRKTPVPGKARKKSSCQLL

Legend:
[1] = biological target: mouse talin-F0 (1–86) (mouse) (UniProt P26039); assay: NMR titration; 2D HSQC of 50 μM 15N-labeled talin-F0 (wild type or DM) or kindlin2-F0 without and with 125 μM unlabeled Rap1b; 25 °C; 20 mM NaH2PO4/Na2HPO4 pH 6.6, 50 mM NaCl, 5 mM MgCl2, 2 mM DTT; both purified
[2] = biological target: GST-talin-H (mouse) (UniProt P26039); assay: pull-down; GST-talin-H on glutathione-Sepharose 4B; prey Rap1b free or anchored to LUVs; 4 °C, 25 mM Tris-HCl pH 7.5, 150 mM NaCl, 5 mM MgCl2; Coomassie and western blot; both purified
[3] = biological target: human kindlin2-F0 (1–105) (human) (UniProt Q96AC1); assay: NMR titration; 2D HSQC of 50 μM 15N-labeled talin-F0 (wild type or DM) or kindlin2-F0 without and with 125 μM unlabeled Rap1b; 25 °C; 20 mM NaH2PO4/Na2HPO4 pH 6.6, 50 mM NaCl, 5 mM MgCl2, 2 mM DTT; both purified
[4] = biological target: GFP-Rap1b (G12V), loaded with GMP-PNP (human, UniProt P61224 1-184, G12V); assay: MST; 100 nM GFP-Rap1b (G12V) with serial dilutions of the partner; 50 mM Tris-HCl pH 7.5, 100 mM NaCl, 5 mM MgCl2, 2 mM DTT, 0.05% Tween 20; RT; both purified

Molecule: Rap1b_TM2 (G12V, C51S, C118S, C141S), loaded with GMP-PNP, free in solution (from UniProt P61224 1-184)
- binding [1]: binds
- binding [2]: binds weakly

Molecule: wild-type Rap1b, loaded with GDP-β-S (inactive form) (from UniProt P61224 1-184)
- binding [1]: binds weakly

Molecule: Rap1b (G12V), loaded with GMP-PNP (active form) (from UniProt P61224 1-184)
- binding [3]: no binding (tested: 125 μM)
- binding [1]: binds weakly

B1: mouse talin-F0 (1–86) (domain or fragment, UniProt P26039 1-86, looked up)
chain: MVALSLKISIGNVVKTMQFEPSTMVYDACRMIRERIPEALAGPPNDFGLFLSDDDPKKGIWLEAGKALDYYMLRNGDTMEYRKKQR
notes: talin (talin-1), mouse, F0 domain, residues 1-86; Isotope labelled or unlabelled as the NMR sample needed; also called F0 domain of talin
- binding [4]: binds weakly

B2: mouse talin-H (1–429) (domain or fragment, UniProt P26039 1-429, looked up)
chain: MVALSLKISIGNVVKTMQFEPSTMVYDACRMIRERIPEALAGPPNDFGLFLSDDDPKKGIWLEAGKALDYYMLRNGDTMEYRKKQRPLKIRMLDGTVKTIMVDDSKTVTDMLMTICARIGITNHDEYSLVRELMEEKKDEGTGTLRKDKTLLRDEKKMEKLKQKLHTDDELNWLDHGRTLREQGVEEHETLLLRRKFFYSDQNVDSRDPVQLNLLYVQARDDILNGSHPVSFDKACEFAGFQCQIQFGPHNEQKHKAGFLDLKDFLPKEYVKQKGERKIFQAHKNCGQMSEIEAKVRYVKLARSLKTYGVSFFLVKEKMKGKNKLVPRLLGITKECVMRVDEKTKEVIQEWSLTNIKRWAASPKSFTLDFGDYQDGYYSVQTTEGEQIAQLIAGYIDIILKKKKSKDHFGLEGDEESTMLEDSVSPKKS
notes: talin (talin-1), mouse, head domain, residues 1-429; Talin-H was cloned into pET28t and into pGST-1; also called talin head domain
- binding [4]: binds weakly
